{"source": "PubChem BioAssay AID1259425 (University of Nebraska Medical Center, 2018)", "assay": "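Compare each knockdown with KSR1 silencing using changes in marker transcripts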 (primary screen)", "system": "HCT116 human colon cancer cells", "reagent": "siRNA pool against human genes, 50 nM siRNA", "read-out": "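mRNA of six signature genes measured together by branched-DNA assay after 50 nM siRNA pool, blank removed, divided by geometric mean of two housekeeping genes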", "scale": "BNIP3L mRNA: higher = more BNIP3L transcript after knockdown", "note": "This is an unselected part of about 14,000 deposited reagents. Reagents against one gene are numbered here. Further read-outs or replicates are left out here. Reagent sequences are not shown. Not given: the time to read-out."}
{"target gene": "PLA2G10 (phospholipase A2 group X)", "reagent no.": 1, "BNIP3L mRNA, set 1": 0.0843}
{"target gene": "ATP5F1D (ATP synthase F1 subunit delta)", "reagent no.": 1, "BNIP3L mRNA, set 1": 0.312}
{"target gene": "KMT5C (lysine methyltransferase 5C)", "reagent no.": 1, "BNIP3L mRNA, set 1": 0.0792}
{"target gene": "MFAP2 (microfibril associated protein 2)", "reagent no.": 1, "BNIP3L mRNA, set 1": 0.0876}
{"target gene": "CCDC85C (coiled-coil domain containing 85C)", "reagent no.": 1, "BNIP3L mRNA, set 1": 0.131}
{"target gene": "RSKR (ribosomal protein S6 kinase related)", "reagent no.": 1, "BNIP3L mRNA, set 1": 0.151}
{"target gene": "ERN2 (endoplasmic reticulum to nucleus signaling 2)", "reagent no.": 1, "BNIP3L mRNA, set 1": 0.112}
{"target gene": "GPR63 (G protein-coupled receptor 63)", "reagent no.": 1, "BNIP3L mRNA, set 1": 0.245}
{"target gene": "ASCC3 (activating signal cointegrator 1 complex subunit 3)", "reagent no.": 1, "BNIP3L mRNA, set 1": 0.0983}
{"target gene": "ASCC3 (activating signal cointegrator 1 complex subunit 3)", "reagent no.": 2, "BNIP3L mRNA, set 1": 0.0888}
{"target gene": "SPN (sialophorin)", "reagent no.": 1, "BNIP3L mRNA, set 1": 0.0628}
{"target gene": "OSGEP (O-sialoglycoprotein endopeptidase)", "reagent no.": 1, "BNIP3L mRNA, set 1": 0.0779}

Entries listed so far whose target name starts with A or a:
{"target gene": "ATP5F1D (ATP synthase F1 subunit delta)", "reagent no.": 1, "BNIP3L mRNA, set 1": 0.312}
{"target gene": "ASCC3 (activating signal cointegrator 1 complex subunit 3)", "reagent no.": 1, "BNIP3L mRNA, set 1": 0.0983}
{"target gene": "ASCC3 (activating signal cointegrator 1 complex subunit 3)", "reagent no.": 2, "BNIP3L mRNA, set 1": 0.0888}

The results go on:
{"target gene": "HPS6 (HPS6 biogenesis of lysosomal organelles complex 2 subunit 3)", "reagent no.": 1, "BNIP3L mRNA, set 1": 0.0969}
{"target gene": "CLPTM1L (CLPTM1 like)", "reagent no.": 1, "BNIP3L mRNA, set 1": 0.174}
{"target gene": "KCNK1 (potassium two pore domain channel subfamily K member 1)", "reagent no.": 1, "BNIP3L mRNA, set 1": 0.218}
{"target gene": "DNAJB11 (DnaJ heat shock protein family (Hsp40) member B11)", "reagent no.": 1, "BNIP3L mRNA, set 1": 0.0614}
{"target gene": "RHBDD1 (rhomboid domain containing 1)", "reagent no.": 1, "BNIP3L mRNA, set 1": 0.357}
{"target gene": "PEG3 (paternally expressed 3)", "reagent no.": 1, "BNIP3L mRNA, set 1": 0.107}
{"target gene": "RGL4 (ral guanine nucleotide dissociation stimulator like 4)", "reagent no.": 1, "BNIP3L mRNA, set 1": 0.129}
{"target gene": "SCHIP1 (schwannomin interacting protein 1)", "reagent no.": 1, "BNIP3L mRNA, set 1": 0.0682}
{"target gene": "GOLT1B (golgi transport 1B)", "reagent no.": 1, "BNIP3L mRNA, set 1": 0.0783}
{"target gene": "PSMG3 (proteasome assembly chaperone 3)", "reagent no.": 1, "BNIP3L mRNA, set 1": 0.168}
{"target gene": "MAP2K6 (mitogen-activated protein kinase kinase 6)", "reagent no.": 1, "BNIP3L mRNA, set 1": 0.209}
{"target gene": "DHDDS (dehydrodolichyl diphosphate synthase subunit)", "reagent no.": 1, "BNIP3L mRNA, set 1": 0.107}
{"target gene": "PEX5 (peroxisomal biogenesis factor 5)", "reagent no.": 1, "BNIP3L mRNA, set 1": 0.0839}
{"target gene": "ZNF397 (zinc finger protein 397)", "reagent no.": 1, "BNIP3L mRNA, set 1": 0.137}
{"target gene": "TNFRSF13B (TNF receptor superfamily member 13B)", "reagent no.": 1, "BNIP3L mRNA, set 1": 0.0354}
{"target gene": "WDR37 (WD repeat domain 37)", "reagent no.": 1, "BNIP3L mRNA, set 1": 0.0828}
